PubChem BioAssay AID1117269, University of Michigan, 2014
In all, the deposit lists 714 reagents; below is an unselected part. 49 of all reagents (6.9%) count as active. 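Active means a hit in at least one line; per-line hit columns show which; some siRNA pools appear more than once.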 No sequences are given here. Not given: the amount of reagent.

Aim: 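Kinases whose silencing alters a TGF-beta responsive luciferase reporter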 (primary screen)
Cell system: human A549 lung cancer and 1833 breast cancer (MDA-MB-231-derived) cell lines carrying a stable BTR luciferase reporter
Knock-down reagent: siRNA pool against human genes
Timing: 72 h after transfection, then 1 h TGF-beta before the read
Challenge: TGF-beta 10 ng/mL added one hour before luciferin and read-out
Measurement: 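BTR reporter bioluminescence as fold change relative to non-targeting siRNA, averaging triplicates per line; knockdown for 72 h, then TGF-beta at 10 ng/mL 1 h prior to reading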
Direction: fold over scrambled siRNA, A549 and fold over scrambled siRNA, 1833: higher = more reporter light, weaker TGF-beta receptor signalling
Rule for the call: 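Hit in either line counts as active; per-line hits lie above an upper limit from quartiles of averaged log fold values, in plate and screen-wide analyses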
Meaning of the calls: active = hit in at least one line; inactive = hit in neither line

no.	target	fold over scrambled siRNA, A549	fold over scrambled siRNA, 1833	hit in A549	hit in 1833	outcome
1	RIOK2	2.48	5.2	not a hit in A549	not a hit in 1833	inactive
2	STK17A	1.1	2.18	not a hit in A549	not a hit in 1833	inactive
3	RIOK1	0.833	2.27	not a hit in A549	not a hit in 1833	inactive
4	STK16	3.19	5.73	not a hit in A549	not a hit in 1833	inactive
5	NME3	3.62	6.73	not a hit in A549	not a hit in 1833	inactive
6	PIP4K2A	2.31	2.19	not a hit in A549	not a hit in 1833	inactive
7	EPHA4	1.38	2.14	not a hit in A549	not a hit in 1833	inactive
8	RPS6KC1	3.14	4.63	not a hit in A549	not a hit in 1833	inactive
9	PRKAR1B	1.63	7.76	not a hit in A549	not a hit in 1833	inactive
10	SMG1	3.81	6.9	not a hit in A549	not a hit in 1833	inactive
11	FER	4.33	7.39	not a hit in A549	not a hit in 1833	inactive
12	PFKL	1.38	5.25	not a hit in A549	not a hit in 1833	inactive
13	JAK1	4.01	3.67	not a hit in A549	not a hit in 1833	inactive
14	MAP2K4	1.78	2.18	not a hit in A549	not a hit in 1833	inactive
15	MVK	2.12	2.47	not a hit in A549	not a hit in 1833	inactive
16	GUCY2EP	3.59	1.3	not a hit in A549	not a hit in 1833	inactive
17	MYO3B	2.86	3.7	not a hit in A549	not a hit in 1833	inactive
18	BRDT	10.4	1.19	hit in A549	not a hit in 1833	active
19	EXOSC10	0.81	1.9	not a hit in A549	not a hit in 1833	inactive
20	PKMYT1	1.52	3.44	not a hit in A549	not a hit in 1833	inactive
21	PRKG2	3.68	1.43	not a hit in A549	not a hit in 1833	inactive
22	NEK4	4.06	1.6	not a hit in A549	not a hit in 1833	inactive
23	BCKDK	1.6	3.67	not a hit in A549	not a hit in 1833	inactive
24	PTK7	1.45	7.81	not a hit in A549	not a hit in 1833	inactive
25	GRK5	3	6.52	not a hit in A549	not a hit in 1833	inactive
26	FN3KRP	1.01	0.476	not a hit in A549	not a hit in 1833	inactive
27	PIK3R4	3.28	3.98	not a hit in A549	not a hit in 1833	inactive
28	SNRK	1.41	1.33	not a hit in A549	not a hit in 1833	inactive
29	MYLK2	0.69	1.33	not a hit in A549	not a hit in 1833	inactive
30	AKT1	1.43	2.33	not a hit in A549	not a hit in 1833	inactive
31	CDK6	0.569	0.746	not a hit in A549	not a hit in 1833	inactive
32	GRK7	0.979	1.44	not a hit in A549	not a hit in 1833	inactive
33	STK32C	1.76	2.85	not a hit in A549	not a hit in 1833	inactive
34	TTBK1	3.57	6.73	not a hit in A549	not a hit in 1833	inactive
35	DGKQ	8.35	6.67	hit in A549	not a hit in 1833	active
36	STK35	1.12	4.33	not a hit in A549	not a hit in 1833	inactive
37	MAST4	1.87	1.67	not a hit in A549	not a hit in 1833	inactive
38	PIK3C2A	1.01	0.778	not a hit in A549	not a hit in 1833	inactive
39	FCSK	0.615	1.36	not a hit in A549	not a hit in 1833	inactive
40	AK5	0.967	5.78	not a hit in A549	not a hit in 1833	inactive
41	MAK	5.33	6.81	not a hit in A549	not a hit in 1833	inactive
42	SRPK3	2.29	4.93	not a hit in A549	not a hit in 1833	inactive
43	TNNI3K	1.64	2	not a hit in A549	not a hit in 1833	inactive
44	CKB	3.57	6.66	not a hit in A549	not a hit in 1833	inactive
45	NADK	1.46	5.67	not a hit in A549	not a hit in 1833	inactive
46	PRKAR1A	1.05	2.33	not a hit in A549	not a hit in 1833	inactive
47	PASK	1.33	2.71	not a hit in A549	not a hit in 1833	inactive
48	PAK3	4.16	3.22	not a hit in A549	not a hit in 1833	inactive
49	TRIM27	3.57	5.94	not a hit in A549	not a hit in 1833	inactive
50	PHKG1	1.44	3.54	not a hit in A549	not a hit in 1833	inactive
51	ADCK1	2.76	1.43	not a hit in A549	not a hit in 1833	inactive
52	CDKN2B	1.24	3.05	not a hit in A549	not a hit in 1833	inactive
53	CSNK1G2	4.52	7.14	not a hit in A549	not a hit in 1833	inactive
54	PSKH1	1.26	2.07	not a hit in A549	not a hit in 1833	inactive
55	ZAP70	1.09	8.87	not a hit in A549	not a hit in 1833	inactive
56	ACVR2B	2.02	4.61	not a hit in A549	not a hit in 1833	inactive
57	DAPK2	2.75	3.37	not a hit in A549	not a hit in 1833	inactive
